Measured values as given in PubChem BioAssay AID624405 (Broad Institute, 2012).
Hit rate of the full screen: of about 1,900 compounds, about 250 (13%) were called active. This list was built around the results that the source calls inconclusive (neither active nor inactive); the mix of calls is not that of the screen.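 The calls were made as follows: active = fitted curve reaches 40% rescue activity at or below the top valid dose, in every test run; inconclusive = test runs disagree, some active and some inactive; inactive = every run misses the threshold or moves the wrong way.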

Test: rescue of simvastatin-induced ATP loss – cell-based, C2C12 myotubes, ATP luminescence, cherry pick, dose response (AID 624405);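 also: myotubes are challenged with simvastatin at 10 µM to lower ATP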
Settings: 48 h, scaled: DMSO wells 0, geranylgeraniol wells 100; at 19.5 µM (top of the series) unless noted

| Structure (SMILES) | rescue activity (ATP increase) |
| --- | --- |
| Cc1cc(C)cc(NC(=O)Cn2nnc(C(=O)NCc3ccc(F)cc3)c2N)c1 | inconclusive: 22.7% |
| C[C@@H]1CN([C@H](C)CO)C(=O)Cc2cc(NC(=O)Cc3cn(C)c4ccccc34)ccc2O[C@H]1CN(C)Cc1ccc(C(F)(F)F)cc1 | inactive: -17.1% |
| O=C(Nc1ccccc1)N1CCCCN2[C@H](C1)[C@H](c1ccc(Br)cc1)[C@@H]2CO | inconclusive: 40.1% |
| COc1cccc(-c2noc(-c3cccs3)n2)c1 | inconclusive: 49.9% |
| C[C@@H]1CN([C@@H](C)CO)C(=O)c2cccc(NC(=O)c3ccc(-c4nccs4)cc3)c2O[C@@H]1CN(C)C(=O)Nc1cccc2ccccc12 | inconclusive: 31% |
| Cc1ccc(C(=O)NCC2(c3ccccc3)CCCC2)cc1 | inconclusive: 33.7% |
| CCCn1c(SCC(=O)c2ccc(OC)c(OC)c2)nc2c1c(=O)n(C)c(=O)n2C | inactive: 8.41% |
| C=C1CC(C)OC(c2ccccc2OCC(O)CN2CCCCC2)C1 (stereo not drawn) | inconclusive: 15.5% |
| COc1ccc(S(=O)(=O)Nc2ccc3c(c2)CC(=O)N([C@@H](C)CO)C[C@H](C)[C@@H](CN(C)Cc2ccccc2)O3)cc1 | inactive: 23.1% [at 21 µM] |
| C[C@@H]1CCCCO[C@H](CN(C)S(=O)(=O)c2ccc(F)cc2)[C@H](C)CN([C@@H](C)CO)C(=O)c2cc(NC(=O)Cc3ccccc3)ccc2O1 | inactive: 2.54% |
| Clc1ccc(-c2nnc(C3CCCCC3)o2)cc1 | inconclusive: 30.1% |
| C[C@@H]1CN([C@@H](C)CO)C(=O)c2cc(N(C)C)ccc2O[C@H]1CN(C)Cc1ccc(-c2ccccc2)cc1 | inactive: 9.05% [at 21 µM] |
| COc1ccc(CCN2C(=O)C3C(C2=O)C2C=CC3C23CC3)cc1OC (stereo not drawn) | inactive: -29.4% |
| Cc1cccc(-c2ccc([C@H]3[C@@H](CO)N4CCCCN(C(=O)c5ccc6c(c5)OCO6)C[C@@H]34)cc2)c1 | inconclusive: 39.6% |
| C[C@H]1CN([C@@H](C)CO)C(=O)c2cc(NS(=O)(=O)c3ccc(Cl)cc3)ccc2O[C@H]1CN(C)S(=O)(=O)c1ccc(Cl)cc1 | inconclusive: 59.8% [at 21 µM] |
| O=C(c1ccccc1)c1nc[nH]c1C(=O)Nc1ccccn1 | inconclusive: 82.7% |
| O=S(=O)(N/N=C\c1ccc(-c2ccccc2Cl)o1)c1ccccc1 | inconclusive: 55.1% |
| Cc1nc(N)sc1-c1nnc(SCC(=O)Nc2ccccc2C(F)(F)F)n1C | inconclusive: 21% |
| COc1ccc(CN2[C@@H]3CN(C(=O)C4CC4)c4ccccc4[C@@H]3[C@@H]2CO)cc1 | inconclusive: 22.4% |
| CC(=O)CCc1c[nH]c2c(C(=O)O)cccc12 | inconclusive: 33.5% |
| C[C@H](CO)N1C[C@H](C)[C@H](CN(C)S(=O)(=O)c2cccs2)Oc2c(NC(=O)Nc3ccc4c(c3)OCO4)cccc2C1=O | inconclusive: 28.8% |
| Cc1c(C(=O)Oc2cccc3ccccc23)cnn1-c1ccccc1 | inconclusive: 23.5% |

Entries above containing an aryl thioether with sulfur outside any ring:

| Structure (SMILES) | rescue activity (ATP increase) |
| --- | --- |
| CCCn1c(SCC(=O)c2ccc(OC)c(OC)c2)nc2c1c(=O)n(C)c(=O)n2C | inactive: 8.41% |
| Cc1nc(N)sc1-c1nnc(SCC(=O)Nc2ccccc2C(F)(F)F)n1C | inconclusive: 21% |

The results go on.

| Structure (SMILES) | rescue activity (ATP increase) |
| --- | --- |
| C[C@@H]1CN([C@H](C)CO)C(=O)Cc2cc(NC(=O)Nc3cccc4ccccc34)ccc2O[C@H]1CN(C)Cc1ccccc1 | inconclusive: 34.4% |
| Cc1ccnc2c(N3C(=O)C4C5C=CC(C5)C4C3=O)cccc12 (stereo not drawn) | inconclusive: 43.7% |
| Cc1nnc2n(-c3ccccc3)c(=O)c3c4c(sc3n12)COC(C)(C)C4 | inconclusive: 39% |
| CC(C)NC(=O)CS(=O)(=O)c1ccccc1 | inconclusive: 1.48% |
| COc1ccc(N(C(=O)c2ccco2)S(=O)(=O)c2cc(OC)ccc2OC)cc1 | inconclusive: 57.2% |
| C[C@H](CO)N1C[C@H](C)[C@@H](CN(C)Cc2ccc(C(F)(F)F)cc2)Oc2ccc(NS(=O)(=O)c3ccc(Cl)cc3)cc2CC1=O | inactive: 12.9% |
| COc1ccc(NC(=O)N(C)C[C@H]2Oc3c(NC(=O)C4CCCCC4)cccc3C(=O)N([C@@H](C)CO)C[C@H]2C)cc1 | inconclusive: 49.9% |
| COc1cc(-c2nnc(SCC#CCO)o2)cc(OC)c1OC | inconclusive: 66.5% |
| COc1ccc(N2CN=C3SCC(=O)N3C2)cc1 | inconclusive: 37.6% |
| Cc1ccc2cc(CN(Cc3ccco3)C(=O)c3ccccc3)c(=O)[nH]c2c1C | inconclusive: 6.98% |
| C[C@@H]1CN([C@@H](C)CO)C(=O)Cc2cc(NS(=O)(=O)c3ccc(Cl)cc3)ccc2O[C@H]1CN(C)Cc1ccc(C(F)(F)F)cc1 | inconclusive: 49.4% |
| CCOc1ccc(-c2nc(CSCC(=O)NCCN3CCOCC3)c(C)o2)cc1 | inactive: 0.407% |
| COc1ccc(NC(=O)NCc2ccccn2)cc1 | inconclusive: 44.7% |
| C[C@@H]1CN([C@H](C)CO)C(=O)c2cc(NS(C)(=O)=O)ccc2O[C@@H](C)CCCCO[C@H]1CN(C)S(=O)(=O)c1ccc(Cl)cc1 | inactive: 15.7% |
| C=C(C)Cn1c(=S)[nH]c2ccccc2c1=O | inconclusive: 30.3% |
| COc1ccc(CN(C)C[C@@H]2Oc3ccc(NS(=O)(=O)c4ccc(F)cc4)cc3CC(=O)N([C@H](C)CO)C[C@H]2C)cc1 | inactive: 35.2% [at 21 µM] |
| Clc1ccccc1CNc1ncnc2nc[nH]c12 | inconclusive: 51.3% |
| C[C@@H]1CN([C@@H](C)CO)C(=O)c2cc(C#Cc3ccccc3F)cnc2O[C@H]1CN(C)C(=O)Cc1ccccc1 | inconclusive: 56.1% |
| Cc1c(NC(=O)C(C#N)=C2CCCCC2)c(=O)n(-c2ccccc2)n1C | inconclusive: 6.63% |
| CS(=O)(=O)Nc1ccc(C(=O)N2CCN(c3ccccc3)CC2)cc1 | inconclusive: -3.68% |
| Cc1ccc2c(c1)NC(C(C)(C)C)CO2 (stereo not drawn) | inconclusive: 35.7% |
